Results reported in the supplement of paper PMC10849652.
The list shows a part of the results.

Chains of the proteins cited; added tags and fusions are not shown. Lines headed by an entry give the natural chain unless they say otherwise; changes in a name come on top.
UniProt Q2T9K0: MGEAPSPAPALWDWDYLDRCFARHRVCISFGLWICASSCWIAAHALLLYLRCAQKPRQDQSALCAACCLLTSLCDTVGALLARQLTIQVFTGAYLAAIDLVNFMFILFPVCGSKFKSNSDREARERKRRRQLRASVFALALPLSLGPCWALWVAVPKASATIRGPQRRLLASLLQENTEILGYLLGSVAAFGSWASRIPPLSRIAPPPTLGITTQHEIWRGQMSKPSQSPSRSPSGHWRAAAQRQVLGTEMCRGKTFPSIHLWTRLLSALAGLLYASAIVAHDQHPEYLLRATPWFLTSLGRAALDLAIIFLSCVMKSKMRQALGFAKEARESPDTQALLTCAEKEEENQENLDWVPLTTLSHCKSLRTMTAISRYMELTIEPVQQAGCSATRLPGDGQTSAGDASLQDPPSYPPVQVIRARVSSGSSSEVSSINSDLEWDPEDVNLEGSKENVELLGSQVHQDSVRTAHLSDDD
UniProt O95807: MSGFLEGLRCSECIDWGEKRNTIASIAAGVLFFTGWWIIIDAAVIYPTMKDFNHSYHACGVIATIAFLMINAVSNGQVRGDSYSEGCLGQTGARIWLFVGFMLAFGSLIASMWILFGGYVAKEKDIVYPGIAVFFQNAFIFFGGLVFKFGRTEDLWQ
UniProt Q9UKE5: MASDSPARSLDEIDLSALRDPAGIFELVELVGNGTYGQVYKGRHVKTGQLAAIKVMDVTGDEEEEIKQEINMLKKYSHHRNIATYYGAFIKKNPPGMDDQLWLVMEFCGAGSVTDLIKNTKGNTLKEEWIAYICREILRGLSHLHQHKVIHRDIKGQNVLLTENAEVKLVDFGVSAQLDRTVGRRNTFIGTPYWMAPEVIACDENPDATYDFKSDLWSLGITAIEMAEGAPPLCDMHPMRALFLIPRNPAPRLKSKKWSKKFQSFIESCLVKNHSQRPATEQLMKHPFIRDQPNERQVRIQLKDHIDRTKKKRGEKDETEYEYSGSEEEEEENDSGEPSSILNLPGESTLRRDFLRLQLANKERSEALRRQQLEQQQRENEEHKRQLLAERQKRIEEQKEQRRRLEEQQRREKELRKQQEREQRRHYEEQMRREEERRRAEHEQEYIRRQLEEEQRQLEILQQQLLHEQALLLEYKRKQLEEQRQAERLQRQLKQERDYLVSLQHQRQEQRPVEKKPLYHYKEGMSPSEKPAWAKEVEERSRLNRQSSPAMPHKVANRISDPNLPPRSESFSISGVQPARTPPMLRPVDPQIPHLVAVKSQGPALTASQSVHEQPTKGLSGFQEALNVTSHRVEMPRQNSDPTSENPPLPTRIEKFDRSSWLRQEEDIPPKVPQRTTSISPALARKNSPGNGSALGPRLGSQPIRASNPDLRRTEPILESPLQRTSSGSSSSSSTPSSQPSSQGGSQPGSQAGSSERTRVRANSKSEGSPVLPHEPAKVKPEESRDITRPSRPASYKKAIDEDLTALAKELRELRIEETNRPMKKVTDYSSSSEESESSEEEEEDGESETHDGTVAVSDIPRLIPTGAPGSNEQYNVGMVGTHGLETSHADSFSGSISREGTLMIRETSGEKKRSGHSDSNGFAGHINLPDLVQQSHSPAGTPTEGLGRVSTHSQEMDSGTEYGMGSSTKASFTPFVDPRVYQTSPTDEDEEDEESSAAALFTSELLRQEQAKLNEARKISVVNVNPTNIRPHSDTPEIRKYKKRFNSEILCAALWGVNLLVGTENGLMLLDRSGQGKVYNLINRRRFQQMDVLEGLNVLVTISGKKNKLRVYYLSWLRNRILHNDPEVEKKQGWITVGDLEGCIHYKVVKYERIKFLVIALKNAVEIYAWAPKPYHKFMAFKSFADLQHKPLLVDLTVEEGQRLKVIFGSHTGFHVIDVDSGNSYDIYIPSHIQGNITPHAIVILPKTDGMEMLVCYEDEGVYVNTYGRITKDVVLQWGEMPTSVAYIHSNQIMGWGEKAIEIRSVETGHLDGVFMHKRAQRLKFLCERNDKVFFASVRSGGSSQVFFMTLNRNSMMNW
UniProt Q96B49: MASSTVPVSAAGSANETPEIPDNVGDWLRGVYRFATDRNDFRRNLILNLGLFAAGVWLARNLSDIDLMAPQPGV
UniProt P21580: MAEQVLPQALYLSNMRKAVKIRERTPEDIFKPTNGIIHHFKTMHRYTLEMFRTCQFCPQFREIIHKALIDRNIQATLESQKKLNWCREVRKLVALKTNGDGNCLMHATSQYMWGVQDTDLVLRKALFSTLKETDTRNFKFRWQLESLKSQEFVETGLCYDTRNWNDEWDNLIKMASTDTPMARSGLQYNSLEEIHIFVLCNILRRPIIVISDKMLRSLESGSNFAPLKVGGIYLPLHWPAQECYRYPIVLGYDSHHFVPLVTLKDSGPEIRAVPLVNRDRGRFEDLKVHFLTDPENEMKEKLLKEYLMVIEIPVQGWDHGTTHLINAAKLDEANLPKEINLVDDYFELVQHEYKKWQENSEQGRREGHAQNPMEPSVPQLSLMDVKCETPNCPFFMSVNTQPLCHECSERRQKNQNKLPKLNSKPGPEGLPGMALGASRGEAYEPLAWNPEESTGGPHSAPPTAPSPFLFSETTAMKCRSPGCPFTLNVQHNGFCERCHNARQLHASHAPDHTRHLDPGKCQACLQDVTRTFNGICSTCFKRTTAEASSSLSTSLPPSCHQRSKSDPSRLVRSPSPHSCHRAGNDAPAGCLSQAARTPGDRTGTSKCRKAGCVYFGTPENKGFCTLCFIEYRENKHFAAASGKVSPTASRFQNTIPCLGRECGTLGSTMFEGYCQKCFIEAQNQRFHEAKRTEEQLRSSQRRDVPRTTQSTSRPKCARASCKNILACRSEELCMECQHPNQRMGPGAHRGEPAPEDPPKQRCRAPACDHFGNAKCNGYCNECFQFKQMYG
UniProt Q13641: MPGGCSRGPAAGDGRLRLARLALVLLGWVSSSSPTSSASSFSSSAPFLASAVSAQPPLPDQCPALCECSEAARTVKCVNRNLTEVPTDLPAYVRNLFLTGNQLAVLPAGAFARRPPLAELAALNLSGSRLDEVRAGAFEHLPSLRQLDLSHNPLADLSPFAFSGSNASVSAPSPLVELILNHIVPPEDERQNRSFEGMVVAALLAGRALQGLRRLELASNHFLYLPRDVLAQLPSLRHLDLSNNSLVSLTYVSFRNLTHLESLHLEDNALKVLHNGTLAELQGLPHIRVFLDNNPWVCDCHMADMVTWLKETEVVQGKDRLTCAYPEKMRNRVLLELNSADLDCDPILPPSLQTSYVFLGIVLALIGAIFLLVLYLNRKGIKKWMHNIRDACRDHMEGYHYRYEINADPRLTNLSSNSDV
UniProt P42167: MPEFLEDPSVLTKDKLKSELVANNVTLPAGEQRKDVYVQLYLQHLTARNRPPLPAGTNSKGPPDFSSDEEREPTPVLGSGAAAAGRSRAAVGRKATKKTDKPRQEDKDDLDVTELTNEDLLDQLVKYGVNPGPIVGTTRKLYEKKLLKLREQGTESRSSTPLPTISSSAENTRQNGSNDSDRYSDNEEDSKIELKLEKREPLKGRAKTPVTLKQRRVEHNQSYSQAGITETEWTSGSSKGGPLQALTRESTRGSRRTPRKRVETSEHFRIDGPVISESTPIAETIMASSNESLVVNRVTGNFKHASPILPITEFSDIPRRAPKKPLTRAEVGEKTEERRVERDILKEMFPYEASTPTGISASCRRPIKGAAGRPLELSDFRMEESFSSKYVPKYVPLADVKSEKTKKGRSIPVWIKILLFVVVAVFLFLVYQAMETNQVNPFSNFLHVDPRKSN
UniProt Q9HCJ0: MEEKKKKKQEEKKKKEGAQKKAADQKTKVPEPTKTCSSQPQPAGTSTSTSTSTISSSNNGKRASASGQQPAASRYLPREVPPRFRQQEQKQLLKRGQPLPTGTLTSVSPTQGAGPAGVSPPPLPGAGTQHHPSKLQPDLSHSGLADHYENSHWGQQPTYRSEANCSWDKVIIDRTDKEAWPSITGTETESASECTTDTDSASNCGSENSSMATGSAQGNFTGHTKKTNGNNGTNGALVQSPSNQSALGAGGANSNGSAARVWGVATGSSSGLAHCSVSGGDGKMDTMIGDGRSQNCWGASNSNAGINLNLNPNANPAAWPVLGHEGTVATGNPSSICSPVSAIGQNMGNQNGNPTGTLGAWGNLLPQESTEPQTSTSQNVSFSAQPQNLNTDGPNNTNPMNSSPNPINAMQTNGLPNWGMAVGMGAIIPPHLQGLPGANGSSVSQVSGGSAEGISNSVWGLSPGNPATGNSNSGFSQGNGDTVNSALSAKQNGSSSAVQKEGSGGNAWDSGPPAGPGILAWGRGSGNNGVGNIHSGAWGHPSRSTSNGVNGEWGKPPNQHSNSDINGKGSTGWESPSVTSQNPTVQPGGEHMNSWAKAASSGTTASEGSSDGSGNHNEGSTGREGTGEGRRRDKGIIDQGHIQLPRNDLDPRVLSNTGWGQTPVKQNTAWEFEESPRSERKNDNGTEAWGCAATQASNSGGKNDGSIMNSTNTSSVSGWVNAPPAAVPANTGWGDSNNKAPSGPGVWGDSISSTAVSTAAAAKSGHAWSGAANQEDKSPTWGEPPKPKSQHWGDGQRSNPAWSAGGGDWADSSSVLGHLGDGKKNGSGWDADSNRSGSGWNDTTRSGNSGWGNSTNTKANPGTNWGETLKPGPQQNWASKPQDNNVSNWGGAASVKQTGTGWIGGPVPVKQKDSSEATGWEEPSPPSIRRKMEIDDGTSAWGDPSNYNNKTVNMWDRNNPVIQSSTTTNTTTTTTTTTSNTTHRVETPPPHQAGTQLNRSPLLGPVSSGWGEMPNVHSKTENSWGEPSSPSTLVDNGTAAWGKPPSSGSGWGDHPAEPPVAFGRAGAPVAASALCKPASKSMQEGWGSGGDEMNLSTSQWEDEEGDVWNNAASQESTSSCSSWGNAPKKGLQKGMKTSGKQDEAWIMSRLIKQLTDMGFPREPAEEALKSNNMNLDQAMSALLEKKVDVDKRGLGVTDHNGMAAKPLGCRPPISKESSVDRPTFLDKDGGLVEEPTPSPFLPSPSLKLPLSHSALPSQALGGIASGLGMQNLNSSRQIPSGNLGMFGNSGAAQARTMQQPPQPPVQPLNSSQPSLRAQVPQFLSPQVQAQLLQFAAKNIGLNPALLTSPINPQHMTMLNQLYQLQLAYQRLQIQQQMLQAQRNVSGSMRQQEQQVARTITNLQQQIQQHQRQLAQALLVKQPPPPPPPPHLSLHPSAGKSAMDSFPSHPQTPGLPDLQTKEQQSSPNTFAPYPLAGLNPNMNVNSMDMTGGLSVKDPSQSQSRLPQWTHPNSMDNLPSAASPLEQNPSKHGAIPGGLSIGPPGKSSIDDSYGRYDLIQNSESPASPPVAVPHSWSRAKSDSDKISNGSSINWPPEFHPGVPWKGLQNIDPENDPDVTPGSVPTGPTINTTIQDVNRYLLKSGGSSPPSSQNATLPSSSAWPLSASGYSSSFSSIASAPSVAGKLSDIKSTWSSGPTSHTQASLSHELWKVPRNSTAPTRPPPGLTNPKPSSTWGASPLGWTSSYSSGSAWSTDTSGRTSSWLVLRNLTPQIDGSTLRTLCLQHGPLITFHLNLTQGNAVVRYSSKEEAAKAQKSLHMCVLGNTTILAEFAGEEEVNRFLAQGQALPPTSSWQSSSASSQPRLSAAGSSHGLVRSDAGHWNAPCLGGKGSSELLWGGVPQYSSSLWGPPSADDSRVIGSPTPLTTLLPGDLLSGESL
UniProt Q5T292: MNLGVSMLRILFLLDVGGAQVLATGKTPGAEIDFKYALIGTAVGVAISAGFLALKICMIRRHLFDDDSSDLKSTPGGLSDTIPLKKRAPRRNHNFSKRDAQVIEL
UniProt H0YL14: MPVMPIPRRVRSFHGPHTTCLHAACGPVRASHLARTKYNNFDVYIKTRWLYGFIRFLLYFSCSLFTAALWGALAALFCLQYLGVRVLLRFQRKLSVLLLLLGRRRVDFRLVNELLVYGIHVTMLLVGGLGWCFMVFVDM
UniProt Q9BTX3: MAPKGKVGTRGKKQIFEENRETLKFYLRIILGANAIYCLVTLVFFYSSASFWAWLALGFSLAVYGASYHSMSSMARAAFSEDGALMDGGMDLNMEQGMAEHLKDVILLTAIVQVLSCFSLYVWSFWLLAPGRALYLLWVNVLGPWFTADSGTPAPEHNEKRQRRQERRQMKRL
UniProt P62328: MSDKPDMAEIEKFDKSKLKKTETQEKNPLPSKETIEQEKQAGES
UniProt Q13829: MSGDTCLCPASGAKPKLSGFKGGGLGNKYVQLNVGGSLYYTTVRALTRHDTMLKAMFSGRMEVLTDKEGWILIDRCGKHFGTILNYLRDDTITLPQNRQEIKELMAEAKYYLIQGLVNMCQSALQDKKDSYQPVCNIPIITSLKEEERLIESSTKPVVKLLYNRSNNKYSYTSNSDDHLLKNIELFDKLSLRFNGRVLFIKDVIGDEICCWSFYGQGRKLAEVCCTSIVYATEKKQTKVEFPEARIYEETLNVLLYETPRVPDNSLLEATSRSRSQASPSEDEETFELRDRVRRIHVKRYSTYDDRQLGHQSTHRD

Tests used:
Assay in all cases: log2 fold change, soluble protein after heating vs DMSO (PISA); higher = thermal stabilisation; K562 lysate, 10 uM; active = over 0.2 and 3.5 SD of the protein, either way, in both replicates (recomputed)
[1] = compound: CCCS(=O)(=O)Nc1ccc(F)c(C(=O)c2c[nH]c3ncc(Cl)cc23)c1F
Summary of the method: (§1)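 Dounce homogenisation of K562 pellets in PBS pH 7.4 with 1 mM MgCl2 produced a crude extract, used at 1 mg/mL protein. Exposure to 10 μM compound lasted 30 min, and aliquots were then heated for 3 min across 48°C-58°C, pooled and brought to 0.5% NP-40 at 4°C. The supernatant after 21,000xg for 90 min was quantified by TMTpro 16plex LC-MS/MS with channel sums equalised. Duplicate values are given as log-two fold change in thermal stability relative to solvent controls.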

barasertib = compound: CCN(CCCOc1ccc2c(Nc3cc(CC(=O)Nc4cccc(F)c4)[nH]n3)ncnc2c1)CCOP(=O)(O)O [barasertib]
Summary of the method: as §1

[2] = compound: CC[C@@H]1C(=O)N(C)c2cnc(Nc3ccc(C(=O)NC4CCN(C)CC4)cc3OC)nc2N1C1CCCC1
Summary of the method: as §1

volasertib = compound: CC[C@@H]1C(=O)N(C)c2cnc(Nc3ccc(C(=O)N[C@H]4CC[C@H](N5CCN(CC6CC6)CC5)CC4)cc3OC)nc2N1C(C)C [volasertib]
Summary of the method: as §1

saracatinib = compound: CN1CCN(CCOc2cc(OC3CCOCC3)c3c(Nc4c(Cl)ccc5c4OCO5)ncnc3c2)CC1 [saracatinib]
Summary of the method: as §1

[3] = compound: CNc1nc(-c2ccc3c(N)n[nH]c3c2)cc(N2C[C@@H](C(=O)NC3CCCCC3)CC[C@H]2C)n1
Summary of the method: as §1

encorafenib = compound: COC(=O)N[C@@H](C)CNc1nccc(-c2cn(C(C)C)nc2-c2cc(Cl)cc(NS(C)(=O)=O)c2F)n1 [encorafenib]
Summary of the method: as §1

[4] = compound: COC(=O)[C@H](CCSC)NC(=O)C1=C(C=C(C=C1)NC[C@H](CS)N)C2=CC=CC=C2
Summary of the method: as §1

[5] = compound: COc1cc2nc(-c3cc(F)ccc3O)nc(N[C@@H]3CNC[C@H]3C(C)(C)O)c2cc1OC
Summary of the method: as §1

[6] = compound: CCn1c(C(=O)N(C2CC2)C2CC2)cc2c3c(ncn3C)c(Nc3cc(C)n(C)n3)nc21
Summary of the method: as §1

[7] = compound: CCn1cc(-c2ccnc3[nH]c(-c4cccc(CN(C)C)c4)cc23)c(-c2ccc(NC(=O)N(C)C)cc2)n1
Summary of the method: as §1

[8] = compound: CN1CCC(CNc2ccc3ncc(-c4cccc(OC(F)(F)F)c4)n3n2)CC1
Summary of the method: as §1

sotrastaurin = compound: CN1CCN(c2nc(C3=C(c4c[nH]c5ccccc45)C(=O)NC3=O)c3ccccc3n2)CC1 [sotrastaurin]
Summary of the method: as §1

alvocidib = compound: CN1CC[C@H](c2c(O)cc(O)c3c(=O)cc(-c4ccccc4Cl)oc23)[C@H](O)C1 [alvocidib]
Summary of the method: as §1

Tubastatin A = compound: CN1CCc2c(c3ccccc3n2Cc2ccc(C(=O)NO)cc2)C1 [Tubastatin A]
Summary of the method: as §1

alisertib = compound: COc1cc(Nc2ncc3c(n2)-c2ccc(Cl)cc2C(c2c(F)cccc2OC)=NC3)ccc1C(=O)O [alisertib]
Summary of the method: as §1

gefitinib = compound: COc1cc2ncnc(Nc3ccc(F)c(Cl)c3)c2cc1OCCCN1CCOCC1 [gefitinib]
Summary of the method: as §1

vemurafenib = compound: CCCS(=O)(=O)Nc1ccc(F)c(C(=O)c2c[nH]c3ncc(-c4ccc(Cl)cc4)cc23)c1F [vemurafenib]
Summary of the method: as §1

[9] = compound: CNC(=O)C1=CC=CC=C1NC2=NC(=NC=C2Cl)NC3=C(C=C(C=C3)N4CCOCC4)OC
Summary of the method: as §1

defactinib = compound: CNC(=O)c1ccc(Nc2ncc(C(F)(F)F)c(NCc3nccnc3N(C)S(C)(=O)=O)n2)cc1 [defactinib]
Summary of the method: as §1

Measured: log2 fold change

TMEM44 (UniProt Q2T9K0)
inactive: [1] 0.061 | barasertib 0.078 | [2] 0.094 | volasertib 0.004 | saracatinib -0.067 | [3] -0.006 | encorafenib 0.087 | [4] -0.207 | [5] 0.224

TMEM50A (UniProt O95807)
inactive: [2] 0.121 | encorafenib 0.117 | [4] 0.315

TMEM268 isoform 3 (UniProt Q5VZI3)
inactive: [2] 0.129 | [6] 0.206 | [7] 0.068 | [8] 0 | saracatinib 0.134 | sotrastaurin -0.018 | alvocidib 0.058 | Tubastatin A -0.037 | [3] -0.015 | encorafenib 0.331 | [4] 0.113

TMEM79 (UniProt Q9BSE2)
inactive: alisertib -0.027 | gefitinib -0.003

TNIK isoform 5 (UniProt Q9UKE5)
inactive: [1] -0.118 | barasertib 0.021 | volasertib -0.087 | [6] -0.059 | [7] -0.051 | [8] -0.065 | saracatinib 0.022 | sotrastaurin 0.034 | alvocidib 0.012 | Tubastatin A -0.015 | [3] -0.04 | [5] 0.214

TMEM248 (UniProt Q9NWD8)
inactive: vemurafenib 0.021 | [2] 0.02 | [6] 0.089 | [7] -0.032 | [8] -0.086 | saracatinib 0.036 | sotrastaurin -0.092 | alvocidib 0.043 | Tubastatin A 0.14 | [9] -0.147 | defactinib -0.078 | [3] -0.083 | encorafenib 0.098 | [4] -0.062 | alisertib -0.13 | gefitinib -0.146

TOMM6 (UniProt Q96B49)
inactive: vemurafenib 0.121 | barasertib 0.205 | [2] 0.083 | [7] -0.02 | [8] 0 | saracatinib 0.017 | alvocidib 0.123 | [9] -0.099 | defactinib 0.013 | [3] -0.018 | encorafenib -0.066 | [4] -0.125

TNFAIP3 (UniProt P21580)
inactive: [1] 0.004 | barasertib -0.015 | [2] -0.412 | volasertib -0.063 | [6] 0.051 | [7] -0.009 | [8] 0.017 | saracatinib 0.029 | sotrastaurin -0.006 | alvocidib 0.005 | Tubastatin A -0.076 | [9] 0.022 | [3] -0.009 | [4] 0.228 | alisertib 0.002 | [5] 0.031 | gefitinib -0.028
active: encorafenib 0.276

TPBG (UniProt Q13641)
inactive: vemurafenib 0.009 | [2] 0.035 | saracatinib 0.124 | sotrastaurin -0.041 | [9] -0.127 | defactinib 0.038 | [3] 0.201 | encorafenib -0.039 | [4] 0.064

TMPO isoform 2 (UniProt P42167)
inactive: vemurafenib 0.08 | barasertib 0.185 | [2] 0.075 | saracatinib 0.044 | defactinib 0.058 | [3] 0.186 | encorafenib -0.113 | [4] -0.14

TNRC6C isoform 2 (UniProt Q9HCJ0)
inactive: [1] -0.004 | barasertib -0.067 | [2] -0.15 | volasertib 0.013 | [6] 0.076 | [7] -0.279 | [8] 0.024 | saracatinib -0.034 | alvocidib -0.055 | Tubastatin A -0.069 | [9] 0.007 | [3] -0.205 | encorafenib -0.031 | [4] -0.289 | [5] 0.018

TMEM273 isoform 2 (UniProt Q5T292)
inactive: barasertib 0.085 | [6] -0.184 | sotrastaurin 0.069 | Tubastatin A 0.096 | [9] 0.054

TMEM250 (UniProt H0YL14)
inactive: sotrastaurin 0.257

TMEM208 (UniProt Q9BTX3)
inactive: [1] -0.005 | barasertib 0 | [2] -0.113 | volasertib -0.081 | [6] 0.027 | [7] -0.369 | [8] 0.246 | saracatinib 0.087 | sotrastaurin 0.063 | alvocidib -0.173 | Tubastatin A -0.099 | [9] -0.08 | [3] 0.031 | encorafenib 0.039 | [4] -0.102 | alisertib 0.01 | [5] -0.069 | gefitinib -0.008

TMEM59 (UniProt Q9BXS4)
inactive: [6] 0.041 | [7] -0.003 | [8] -0.001 | alvocidib -0.011 | Tubastatin A 0.138

TPD52 isoform 3 (UniProt P55327)
inactive: [1] 0.136 | [2] -0.043 | volasertib -0.326 | [6] 0.148 | Tubastatin A 0.145 | [9] -0.072 | encorafenib 0.03 | [4] 0.033 | [5] 0.061

TNK2 isoform 3 (UniProt Q07912)
inactive: barasertib 0.058 | [6] 0.127 | [7] -0.061 | [8] -0.244 | sotrastaurin -0.058 | alvocidib 0.05 | Tubastatin A -0.402

Pulled one by one from the list above (two):
TMEM59 (UniProt Q9BXS4)
inactive: [6] 0.041 | [7] -0.003 | [8] -0.001 | alvocidib -0.011 | Tubastatin A 0.138

TPD52 isoform 3 (UniProt P55327)
inactive: [1] 0.136 | [2] -0.043 | volasertib -0.326 | [6] 0.148 | Tubastatin A 0.145 | [9] -0.072 | encorafenib 0.03 | [4] 0.033 | [5] 0.061

(continued)

TMSB4X (UniProt P62328)
inactive: [1] -0.068 | barasertib 0.056 | [2] 0.084 | volasertib 0.104 | [6] -0.187 | [7] -0.191 | [8] 0.371 | sotrastaurin 0.205 | alvocidib 0.401 | Tubastatin A 0.102 | [9] -0.045 | encorafenib 0.043 | [4] -0.055 | alisertib -0.143 | [5] 0.063 | gefitinib -0.001

TPT1 (UniProt E9PJF7)
inactive: [1] 0.031 | barasertib -0.323 | volasertib -0.048 | [7] 0.399 | [8] -0.109 | sotrastaurin -0.08 | alvocidib 0.249 | [9] -0.191 | [5] 0.152

TNFAIP1 (UniProt Q13829)
inactive: barasertib 0.101 | [6] 0.221 | [7] -0.138 | [8] -0.064 | alvocidib 0.221 | Tubastatin A 0.148

TMEM41B (UniProt Q5BJD5)
inactive: [1] -0.011 | barasertib 0.302 | [2] -0.036 | volasertib -0.012 | [6] -0.294 | [7] 0.075 | [8] -0.113 | saracatinib 0 | sotrastaurin -0.061 | alvocidib 0.057 | Tubastatin A 0.105 | [9] 0.049 | [3] -0.176 | encorafenib 0.004 | [4] -0.052 | [5] -0.055

TNNC1 (UniProt P63316)
inactive: barasertib 0.585 | [7] 0.509 | [8] 0.325 | alvocidib -1.92

TMEM267 (UniProt Q0VDI3)
inactive: barasertib 0.023 | [6] -0.046 | [7] 0.053 | [8] 0.004 | sotrastaurin 0.016 | alvocidib -0.12 | Tubastatin A 0.025 | [9] -0.066 | alisertib -0.319 | gefitinib -0.048

TMEM189 (UniProt A5PLL7)
inactive: [1] -0.11 | barasertib 0.111 | [2] 0.098 | volasertib 0.062 | [6] -0.081 | [7] -0.215 | [8] 0.021 | saracatinib 0.001 | sotrastaurin -0.005 | alvocidib -0.065 | Tubastatin A 0.01 | [9] 0.133 | [3] -0.137 | encorafenib 0.034 | [4] -0.092 | alisertib 0.035 | [5] -0.096 | gefitinib -0.038

TMEM209 (UniProt Q96SK2)
inactive: [1] 0.055 | barasertib 0.053 | volasertib 0.048 | [6] 0.054 | [7] 0.114 | [8] -0.07 | saracatinib 0.128 | sotrastaurin 0.018 | alvocidib 0.112 | Tubastatin A -0.011 | [9] -0.26 | [3] -0.119 | [5] 0.039

TPRN (UniProt Q4KMQ1)
inactive: saracatinib -0.093 | sotrastaurin -0.118 | [3] -0.171

TMEM98 (UniProt Q9Y2Y6)
inactive: [6] -0.298 | [7] 0.019 | [8] 0.012 | alvocidib -0.015 | Tubastatin A -0.093 | alisertib 0.091 | gefitinib -0.055

TMEM246 (UniProt Q9BRR3)
inactive: barasertib 0.284 | [6] -0.109 | Tubastatin A -0.068 | [9] 0.041
